In US12043870B2, “Methods and compositions for detecting and modulating an immunotherapy resistance gene signature in cancer” (The Broad Institute, Inc., priority 2017, dated 2024):
Values joined by “and” are separate entries in the source; they are usually repeats but may differ in a detail not shown here. Equal entries are not always repeated. “Also recorded” adds a separate entry of the source. At least one structure is not confirmed: it was looked up by name or label, or the drawing left a doubt.

Columns and labels:
UACC257 = assay: scRNA-seq of melanoma cell line before and after treatment with abemaciclib for 1 week; type: cell-based, human
Description: (§1) To determine this effect in melanoma, Applicants identified melanoma cell lines in the Cancer Cell Line Encyclopedia (CCLE) with the strongest expression of the uICR signature, including IGR37, UACC257 (both RB-sufficient) and A2058 (RB-deficient). Applicants performed scRNA-seq on these cell lines before and after treatment with abemaciclib for 1 week (FIG. 41). In both IGR37 and UACC257, Applicants saw a decrease in the expression of the uICR state (P<3.59*10^−34, one-sided t-test). […] This population decreased from 10% before treatment (2,454 cells) to 2% in the post-treatment condition (1,570 cells).
(§2) To test this hypothesis, Applicants studied the effect of abemaciclib on the immune resistance program in melanoma cell lines. […] Applicants profiled each cell line with scRNA-seq before and after treatment with abemaciclib for 1 week (FIGS. 49D-E), analyzing over 23,000 cells in these and follow-up conditions (below).
(§3) Applicants therefore tested if CDK4/6i could shift the malignant cell population to a less immune resistant state. Applicants selected three melanoma cell lines that strongly expressed the program (Table 30A), two of which are RB1-sufficient (IGR37, UACC257) and one is RB1-deficient (A2058). Applicants profiled each cell line with scRNA-seq before and after treatment with abemaciclib, analyzing >23,000 cells (FIG. 67E,F, Table 25). […] In the RB-sufficient cell lines, IGR37 and UACC257, 10% of cells had exceptionally strong expression of the program (“immune resistant” cells) prior to treatment. Post-treatment the relative abundance of these cells decreased to 2% and 0.6% of the total population, respectively (FIG. 67E,F panel 4). […] Abemaciclib induced the MITF program (Tirosh et al., 2016) (P<1*10^−17, hypergeometric test, FIG. 67E,F, panel 5), which is repressed in “immune resistant” cells and is associated with melanocytic differentiation.
(§4) For droplet-based scRNA-seq, experiments were performed on the 10x Genomics Chromium platform, with the Chromium Single Cell 3′ Library & Gel Bead Kit v2 and Chromium Single Cell 3′ Chip kit v2 according to the manufacturer's instructions in the Chromium Single Cell 3′ Reagents Kits V2 User Guide. Briefly, ˜6,000 cells were re-suspended in PBS supplemented with 0.04% BSA and loaded to each channel. The cells were then partitioned into Gel Beads in Emulsion in the GemCode instrument, where cell lysis and barcoded reverse transcription of RNA occurred, followed by amplification, shearing and 5′ adaptor and sample index attachment.
(§5) Established melanoma cell lines […] and A2058 were acquired from the Cancer Cell Line Encyclopedia (CCLE) from the Broad Institute. Cells were treated every 3 days with 500 nM abemaciclib (LY2835219, MedChemExpress) or DMSO control. The doubling time of each cell line was established and lines were seeded such that cells collected for scRNA-seq were derived from culture dishes with ˜50-60% confluency on day 7 of treatment. Cells were lifted off culture dishes using Versene solution (Life Technologies), washed twice in 1×PBS, counted and resuspended in PBS supplemented with 0.04% BSA for loading for scRNA-seq with the 10X Genomics platform.

IGR37 = assay: as above; type: cell-based, human
Description: as §1, §2, §3, §4, §5

breast cancer tumors = assay: Analysis of published expression profiles (Goel et al., 2017) of breast cancer tumors from abemaciclib treated mice; type: in vivo, mouse; settings: tumors from abemaciclib treated mice vs vehicle, data of Goel et al.
cancer cell lines = assay: CDK4/6 inhibitor efficacy vs resistance program across cancer cell lines (Gong et al., 2017); set-up: species or system human; settings: collection of cancer cell lines (Gong et al., 2017)
melanoma cells = assay: Senescence-associated galactosidase activity and morphological alterations; settings: abemaciclib 500 nM, 10 days vs DMSO
[1] = test system: breast cancer cell lines (M361, MCF and M453); assay: Analysis of published expression profiles (Goel et al., 2017) of abemaciclib-treated breast cancer cell lines; type: cell-based, human
A2058 = assay: scRNA-seq of melanoma cell line before and after treatment with abemaciclib for 1 week; type: cell-based, human; settings: A2058 (RB1-deficient); abemaciclib 1 week
[2] = test system: patient-derived melanoma cells with autologous ex vivo expanded TILs; assay: Melanoma-TIL co-culture, scRNA-seq of surviving melanoma cells; type: cell-based, human
[3] = test system: B16 tumors in C57BL/6 mice; assay: B16 syngeneic mouse model: tumor outgrowth and survival; type: in vivo; settings: B16 in C57BL/6 mice; compared to vehicle / other groups
[4] = test system: 639 human cancer cell lines; assay: Search for immune sensitizing drugs: drug efficacy vs resistance program across cell lines (Garnett et al., 2012); settings: controlling for cancer types
[5] = data of Goel et al., 2017, breast cancer cell lines and in vivo models

SMILES: CCN1CCN(Cc2ccc(Nc3ncc(F)c(-c4cc(F)c5nc(C)n(C(C)C)c5c4)n3)nc2)CC1 [abemaciclib]
- expression of the uICR state (UACC257; after abemaciclib 1 week): decrease
- DNMT1 expression (UACC257; post-treatment): repressed
- ERV-3 expression (UACC257; post-treatment): induced
- expression of MITF signature/program (UACC257; post-treatment): induced; also recorded: higher portion of cells with induction
- expression of SASP module (UACC257; post-treatment): significantly induced
- expression of the uICR state (IGR37; after abemaciclib 1 week): decrease
- DNMT1 expression (IGR37; post-treatment): repressed
- ERV-3 expression (IGR37; post-treatment): induced
- expression of MITF signature/program (IGR37; post-treatment): induced; also recorded: higher portion of cells with induction
- expression of SASP module (IGR37; post-treatment): significantly induced
- expression of the ICR state / resistance program (breast cancer tumors): represses
- association of drug efficacy with expression of the resistance program (cancer cell lines): correlated; also recorded: confirmed
- senescence-associated galactosidase activity and morphological alterations that reflect cellular senescence (melanoma cells): induced; also recorded: increased
- expression of the ICR state / resistance program ([1]; abemaciclib vs DMSO, data of Goel et al., 2017): represses
- expression of uICR-down [1, 5]: induced
- expression of uICR-up [1, 5]: strongly repressed
- expression of the uICR / immune resistant state (A2058): did not show changes; also recorded: did not repress
- sensitive (ICR-low) subpopulation of cells post-TILs ([2]; abemaciclib-treated cells after TIL exposure): increase
- expression of the uICR signature / immune resistance program ([2]; melanoma cells pre-treated 500 nM 7 days, with and without exposure to autologous TILs): further intensifies these effects; also recorded: further repressed; also recorded: significantly repressed
- rate of tumor outgrowth [3]: no impact
- survival [3]: no impact

SMILES: CC(=O)c1c(C)c2cnc(Nc3ccc(N4CCNCC4)cn3)nc2n(C2CCCC2)c1=O [palbociclib]
- rank among 131 drugs by greater toxicity to cell lines overexpressing the immune resistance program [4]: top scoring and 3rd highest scoring
- association of drug efficacy with expression of the resistance program (cancer cell lines): correlated; also recorded: confirmed
